According to patent US20260216326A1, “METHODS OF TREATING INFLAMMATORY DISEASES WITH COMBINATION OF TL1A INHIBITORS AND S1PR INHIBITORS” (Prometheus Biosciences, Inc., priority 2022, published 2026):
Results are given in words; binding and its absence hold for the method and conditions named. Some binding calls cover weakened binding; strength is not graded here.

Target: T1, DR3 (Death Receptor 3) natively expressed on human TF-1 cells (human) (UniProt Q93038)
T1 sequence (looked up): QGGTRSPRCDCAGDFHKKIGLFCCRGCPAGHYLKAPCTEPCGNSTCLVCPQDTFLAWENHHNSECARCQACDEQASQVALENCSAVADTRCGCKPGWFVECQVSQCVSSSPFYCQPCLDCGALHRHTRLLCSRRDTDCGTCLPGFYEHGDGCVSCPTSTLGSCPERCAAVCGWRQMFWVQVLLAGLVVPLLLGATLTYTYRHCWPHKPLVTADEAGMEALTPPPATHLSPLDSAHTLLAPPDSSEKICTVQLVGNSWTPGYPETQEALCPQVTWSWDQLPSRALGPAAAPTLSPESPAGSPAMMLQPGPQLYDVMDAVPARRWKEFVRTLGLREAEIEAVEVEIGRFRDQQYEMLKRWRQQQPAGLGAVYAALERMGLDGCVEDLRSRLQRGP
Test: TF-1 cell caspase activation assay

B1: cynomolgus monkey TL1A protein (ligand)
chain: LKGQEFAPSHQQVYAPLRADGDKPRAHLTVVRQTPTQHLKNQFPALHWEHELGLAFTKNRMNYTNKFLLIPESGDYFVYSQVTFRGMTSECSEIRQAGRPNKPDSITVVITKVTDSYPEPTQLLMGTKSVCEVGSNWFQPIYLGAMFSLQEGDKLMVNVSDISLVDYTKEDKTFFGAFLL
**Q.** With B1 as the binder, how does the binding read?
**A.** Its binding is “binds”.
